The target of assay [1] is T1, transcriptional repressor GATA binding 1 (endogenous) (human (endogenous in Ishikawa and T47D)) (UniProt Q9UHF7).
T1 sequence: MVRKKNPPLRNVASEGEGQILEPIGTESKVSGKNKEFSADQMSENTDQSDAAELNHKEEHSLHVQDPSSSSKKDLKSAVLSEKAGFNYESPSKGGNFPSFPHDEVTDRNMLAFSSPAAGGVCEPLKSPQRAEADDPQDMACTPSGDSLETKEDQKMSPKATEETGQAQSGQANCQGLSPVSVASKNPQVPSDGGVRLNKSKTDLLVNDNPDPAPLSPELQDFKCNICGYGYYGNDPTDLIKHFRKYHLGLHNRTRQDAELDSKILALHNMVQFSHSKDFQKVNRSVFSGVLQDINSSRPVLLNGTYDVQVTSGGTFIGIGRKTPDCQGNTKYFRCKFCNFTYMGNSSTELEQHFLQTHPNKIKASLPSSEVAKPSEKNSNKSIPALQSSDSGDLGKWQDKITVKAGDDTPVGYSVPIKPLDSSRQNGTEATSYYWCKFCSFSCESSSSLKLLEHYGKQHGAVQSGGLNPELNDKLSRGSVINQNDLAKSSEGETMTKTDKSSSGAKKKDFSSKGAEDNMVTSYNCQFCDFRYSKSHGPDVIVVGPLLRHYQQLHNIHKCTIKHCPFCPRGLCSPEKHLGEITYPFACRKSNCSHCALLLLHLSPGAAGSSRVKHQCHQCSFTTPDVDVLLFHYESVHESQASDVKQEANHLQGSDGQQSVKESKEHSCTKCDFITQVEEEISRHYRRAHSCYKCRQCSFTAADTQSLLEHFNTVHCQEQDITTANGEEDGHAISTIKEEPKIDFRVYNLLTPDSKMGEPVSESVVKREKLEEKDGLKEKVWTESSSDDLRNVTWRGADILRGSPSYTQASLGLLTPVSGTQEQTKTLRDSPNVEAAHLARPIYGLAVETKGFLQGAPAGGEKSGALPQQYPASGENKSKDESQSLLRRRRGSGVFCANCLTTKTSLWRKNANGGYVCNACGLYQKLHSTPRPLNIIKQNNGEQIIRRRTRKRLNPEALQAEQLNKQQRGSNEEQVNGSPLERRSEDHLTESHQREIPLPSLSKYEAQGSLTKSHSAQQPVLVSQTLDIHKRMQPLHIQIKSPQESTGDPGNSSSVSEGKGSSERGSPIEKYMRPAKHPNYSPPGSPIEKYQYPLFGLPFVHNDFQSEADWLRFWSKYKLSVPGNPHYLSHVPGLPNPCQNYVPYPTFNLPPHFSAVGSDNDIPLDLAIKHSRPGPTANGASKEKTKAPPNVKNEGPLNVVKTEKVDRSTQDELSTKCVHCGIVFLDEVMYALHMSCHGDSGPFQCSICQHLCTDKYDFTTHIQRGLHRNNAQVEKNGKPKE
Description: co-IP; endogenous co-IP in T47D cells without MPA; lysates in HEGN buffer, antibody-coupled Dyna beads overnight at 4 °C, immunoblot.

By UniProt entry, the sequences of proteins in these tests, tags left out. Where a name states a change or a piece, a line headed by the entry shows the natural chain unless it says otherwise.
UniProt P06401: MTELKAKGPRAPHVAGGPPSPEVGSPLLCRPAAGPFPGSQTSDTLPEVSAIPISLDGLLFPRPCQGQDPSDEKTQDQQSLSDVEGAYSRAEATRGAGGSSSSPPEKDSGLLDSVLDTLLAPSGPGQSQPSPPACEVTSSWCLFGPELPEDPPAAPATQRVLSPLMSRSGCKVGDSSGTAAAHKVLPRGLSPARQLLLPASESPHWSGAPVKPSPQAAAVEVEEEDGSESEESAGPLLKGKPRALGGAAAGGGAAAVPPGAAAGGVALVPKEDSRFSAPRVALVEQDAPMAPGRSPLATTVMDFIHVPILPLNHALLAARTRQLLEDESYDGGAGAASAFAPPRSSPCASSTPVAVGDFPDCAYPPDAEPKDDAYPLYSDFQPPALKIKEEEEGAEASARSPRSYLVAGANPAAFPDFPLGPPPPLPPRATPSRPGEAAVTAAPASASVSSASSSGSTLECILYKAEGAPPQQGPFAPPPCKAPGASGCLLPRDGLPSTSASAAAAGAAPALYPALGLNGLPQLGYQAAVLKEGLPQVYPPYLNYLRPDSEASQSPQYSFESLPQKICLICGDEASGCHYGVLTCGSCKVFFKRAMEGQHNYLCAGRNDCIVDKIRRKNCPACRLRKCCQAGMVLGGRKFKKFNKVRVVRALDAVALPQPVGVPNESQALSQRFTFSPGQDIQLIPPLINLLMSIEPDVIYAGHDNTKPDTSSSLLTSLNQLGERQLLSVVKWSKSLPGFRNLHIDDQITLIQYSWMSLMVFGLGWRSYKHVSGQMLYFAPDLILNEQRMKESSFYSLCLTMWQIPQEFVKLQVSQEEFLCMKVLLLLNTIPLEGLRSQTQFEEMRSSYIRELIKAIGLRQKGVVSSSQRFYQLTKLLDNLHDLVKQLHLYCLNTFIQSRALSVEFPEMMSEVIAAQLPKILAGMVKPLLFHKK
UniProt Q92769: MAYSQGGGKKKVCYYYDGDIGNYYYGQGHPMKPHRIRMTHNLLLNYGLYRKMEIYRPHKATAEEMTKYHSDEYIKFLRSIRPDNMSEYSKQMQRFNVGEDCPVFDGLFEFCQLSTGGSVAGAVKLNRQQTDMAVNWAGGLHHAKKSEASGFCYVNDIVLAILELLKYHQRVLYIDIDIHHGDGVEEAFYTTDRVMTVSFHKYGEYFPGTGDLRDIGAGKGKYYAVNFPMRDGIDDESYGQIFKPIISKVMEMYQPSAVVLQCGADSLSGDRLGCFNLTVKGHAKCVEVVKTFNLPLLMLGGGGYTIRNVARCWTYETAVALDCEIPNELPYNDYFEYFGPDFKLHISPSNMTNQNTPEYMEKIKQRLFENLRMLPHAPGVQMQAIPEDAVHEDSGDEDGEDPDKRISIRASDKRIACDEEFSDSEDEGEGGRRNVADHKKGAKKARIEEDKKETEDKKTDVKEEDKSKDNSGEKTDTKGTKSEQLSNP

In assay [2] the target is T1, transcriptional repressor GATA binding 1 (endogenous) (human (endogenous in Ishikawa and T47D)). Description: co-IP; endogenous co-IP in Ishikawa cells, with or without MPA treatment; lysates in HEGN buffer, antibody-coupled Dyna beads overnight at 4 °C, immunoblot.
Assay [3] has as its target T2, His-TRPS1 (transcriptional repressor GATA binding 1) (UniProt Q9UHF7).
T2 sequence: T1 sequence
Description: co-IP; exogenous co-IP; HEK-293T co-transfected with HA-PGR and His-TRPS1, or His-TRPS1 and Flag-HDAC2, for 36 h; lysates in HEGN buffer, antibody-coupled Dyna beads overnight at 4 °C, immunoblot.

The target in assay [4] is HA-PGR (progesterone receptor) (UniProt P06401). Described as above.
Assay [5] has as its target progesterone receptor (endogenous) (human (endogenous in Ishikawa and T47D)) (UniProt P06401). The experiment in a line: co-IP; endogenous co-IP in T47D cells without MPA; lysates in HEGN buffer, antibody-coupled Dyna beads overnight at 4 °C, immunoblot.
Assay [6] shares this target. The experiment in a line: co-IP; endogenous co-IP in Ishikawa cells, with or without MPA treatment; lysates in HEGN buffer, antibody-coupled Dyna beads overnight at 4 °C, immunoblot.

These are yes or no findings as the source states them, for the method shown. In cells and extracts the contact can be indirect. Some entries that bind do so weakly or less than the wild type. For part of these data: Tags and fused reporters may be left off the sequences shown.

On to “histone deacetylase 2 (endogenous) (from UniProt Q92769 1-488)”, for which the binding entry in assay [1] and in assay [2] was “binds” throughout.

Consider “Flag-HDAC2 (histone deacetylase 2) (from UniProt Q92769 1-488)”, for which the binding result in assay [3] is “binds”.

B1: His-TRPS1 (transcriptional repressor GATA binding 1) (protein, UniProt Q9UHF7 1-1281)
chain: T1 sequence
On to B1, for which the binding result in assay [4] was “binds”.

B2: transcriptional repressor GATA binding 1 (endogenous) (protein, UniProt Q9UHF7 1-1281)
chain: T1 sequence
As for B2, the binding result in assay [5] and in assay [6] was “binds” throughout.

The record behind these values is paper PMC10284899.
